According to US20230054407A1, “OPTICAL BIOPSY STAIN PANELS AND METHODS OF USE” (ARIZONA BOARD OF REGENTS ON BEHALF OF THE UNIVERSITY OF …, priority 2020, published 2023):
At least one structure is not confirmed: it was looked up by name or label, or the drawing left a doubt.

Experiment: In vitro fluorescence emission spectra and compatibility of nucleic acid and protein/cytoplasm dyes
Type: physicochemical
Experimental: Additional incompatibility results from overlapping of the component peak emissions.
Daunorubicin (1 μM), Fluorescein (1 nM) and the combination of the two were excited at 375 nm, with resultant fluorescence emission.
With 405 nm excitation, Proflavine at 0.25 μM, Rose Bengal at 10 μM, and the combination result in roughly the same order of magnitude peaks resulting from their respective fluorescence.
FIGS. 8A-8F show emission spectra of various drug dye candidates. FIGS. 8A-8D show Mitoxantrone as a Hematoxylin-alternative candidate at 10 μM, with Phloxine B at 0.1 μM as an Eosin-alternative candidate drug-dye, and a combination of the two excited at different wavelengths: (FIG. 8A) 375 nm, (FIG. 8B) 405 nm, (FIG. 80) 455 nm, and (FIG. 8D) 488 nm. […] Additionally, there was overlap of emission spectra (FIG. 9) and the combination of certain DNA and protein dyes decreased the emission intensity relative to the same concentration of the component dye alone (FIG. 9 and FIG. 10).
The stain panels listed below use a combination of nucleus dyes and protein/cytoplasm dyes that have been optimized for their compatibility.

O=C1/C(=C2\Nc3ccc(S(=O)(=O)[O-])cc3C2=O)Nc2ccc(S(=O)(=O)[O-])cc21.[Na+].[Na+] [Indigo Carmine]
Approximate peak fluorescence: ~400, 450 nm
